Test results taken from patent publication US5707800, “Retinoic acid response elements and assays employing same” (The Salk Institute for Biological Studies).
For at least one entry, the source does not settle the construct or the ends of the probe.

System: RAR (retinoic acid receptor, subtype not stated for gel shift)
Experiment: EMSA
Details: saturates probe; affinity appeared greater than for betaRE; unlabeled RXRE competes at least as well as betaRE; purified recombinant protein; protein details: bacterially produced, partially purified; label: 32P

Question: Does “GCTGTCACAGGTCACAGGTCACAGGTCACAGTTCA (double strand) [CRBPII-RXRE]” bind?
Answer: Result: binds
